Test results: PubChem BioAssay AID493014 (National Center for Advancing Translational Sciences (NCATS), 2011)
“And” between values parts separate entries of the source, which are not always exact repeats. Equal values may be shown once. The list shows a part of the results. Shown are side measurements of this screen, not its main read-out; they come without a call. Most of these compounds were active or inconclusive in the main read-out, so they are no random draw. The note in brackets gives the kind of curve behind each potency; many fits are weak.

Experiment: qHTS Assay to Find Inhibitors of Chronic Active B-Cell Receptor Signaling
Details: ABC-DLBCL IkBa-CBG/CBR reporter, luminescence ratio (green luciferase fused to IkBa over red control in TMD8 lymphoma cells), 4 h
Summary of the method: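 TMD8 human ABC-DLBCL cells with doxycycline-inducible IκBα–green luciferase fusion and unfused red luciferase, in 0.5% FBS medium; compounds up to 46 uM, 4 h at 37C. Green/red luminescence ratio, filter-overlap corrected, fitted to concentration-response curves.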

[1] = measured here: CBR red luminescence, cell number
[2] = measured here: IkBa-CBG green luminescence

| SMILES | AC50 [1] | AC50 [2] |
| --- | --- | --- |
| CCS(=O)(=O)Nc1ccc(C2=NN(C(=O)c3ccccc3)C(c3cccs3)C2)cc1 (configuration not stated) | 35.5 µM [falling, single point] | – |
| COc1ccc(-c2ccc(OC)c([C@H]3[C@@H]4C=CCC[C@@]4(C)C(=O)N3Cc3ccccc3)c2)cc1OC | 20 µM [falling, single point] | – |
| O=C(OCC(=O)N1CCCc2ccccc21)c1cccc(C(F)(F)F)c1 | 23.1 µM [rising, single point] | – |
| CCNC(=S)Nc1cc(OCC)c(NC(=O)c2cccs2)cc1OCC | 6.51 µM [rising, single point] | – |
| Cc1ccc(-c2cc(C(=O)Nc3cccnc3)[nH]n2)c(O)c1C | 10 µM [falling, single point] | – |
| Cc1ccc(S(=O)(=O)NNC(=O)Nc2cccc(F)c2)c(C)c1 | 31.6 µM [rising, single point] | – |
| CN1CCc2cccc3c2[C@H]1Cc1ccc(O)c(O)c1-3 | 29.1 µM [falling, single point] and 4.61 µM [rising, full curve, poor fit] | 3.66 µM [falling, partial curve] |
| CN(c1ccccc1)S(=O)(=O)c1cccc(C(=O)NCCc2ccc(O)c(O)c2)c1 | 7.08 µM [falling, full curve, poor fit] | – |
| Cc1c(C)n(CC(O)CN2CCCCCC2)c2ccccc12 (configuration not stated) | 11.2 µM [falling, partial curve, poor fit] | – |
| Cc1cc(C)nc(NN=C2CCCC2)n1 | 0.206 µM [falling, partial curve, poor fit] | – |
| Cc1ccc(COC(=O)c2ccc3ccccc3n2)cc1 | 17.8 µM [rising, partial curve] | – |
| CCOc1ccc(NC(=O)c2ccccc2CO)cc1 | 0.00461 µM [falling, full curve, poor fit] | – |
| Nc1cc(-c2cccc([N+](=O)[O-])c2)[nH]n1 | 23.1 µM [rising, partial curve, poor fit] | – |
| COc1cccc(CNc2nc3nc(C)c(Cl)c(=O)n3[nH]2)c1 | 11.2 µM [falling, partial curve, poor fit] | – |
| Cn1c(N)c(C(=O)c2ccc(Cl)cc2)c(=O)n(C)c1=O | 6.51 µM [falling, single point] | – |
| Cc1ccc(S(=O)(=O)N2CCCC2C(=O)OCC(=O)Nc2ccc3c(c2)OCO3)cc1 (configuration not stated) | 3.16 µM [falling, full curve] | – |
| CC(=O)N1CCN(c2ccc(NC(=O)c3ccc(C(C)(C)C)cc3)cc2)CC1 | 29.1 µM [falling, single point] | – |
| O=S(=O)(NCc1ccco1)c1ccc2ccccc2c1 | 0.282 µM [rising, full curve, poor fit] | – |
| CC1CCCCN1CC(=O)Nc1cc(S(=O)(=O)N2CCOCC2)ccc1N1CCCC1 (configuration not stated) | 31.6 µM [rising, single point] | – |
| COc1ccc(C(=O)NCc2nnc(SCC(=O)c3ccccc3)n2C)cc1 | 10 µM [rising, partial curve, poor fit] | – |
| CC(C)(C)NC(=O)c1oc2ccccc2c1COc1ccccc1 | 25.9 µM [rising, single point] | – |

| SMILES | AC50 [1] | AC50 [2] |
| --- | --- | --- |
| CC(C)CC(=O)Nc1nnc(CCc2ccccc2)s1 | 14.1 µM [rising, single point] | – |
| Cn1cc(/C=N/NC(=O)COc2ccccc2[N+](=O)[O-])c2ccccc21 | 29.1 µM [falling, single point] | – |
| CC(C)C(=O)NC(=S)/C=C1/N(C)c2ccccc2C1(C)C | – | 20 µM [falling, partial curve, poor fit] |
| N#CC1=C(N)N(c2ccc(Br)cc2)C2=C(C(=O)CCC2)C1c1cccnc1 (configuration not stated) | 0.92 µM [falling, full curve] | – |
| Cc1ccc(NC(=O)c2cc(N3C(=O)C=CC3=O)ccc2N2CCOCC2)cc1Cl | 14.6 µM [falling, partial curve] | – |
| COc1cccc(OC)c1C(=O)Nc1ccccc1N1CCCCC1 | 0.794 µM [rising, full curve] | – |
| CNC(=O)CC1C(=O)N(c2ccc(Cl)cc2)C(=S)N1CCc1ccc(OC)c(OC)c1 (configuration not stated) | 35.5 µM [falling, single point] | 10 µM [falling, partial curve, poor fit] |
| CCNC(=S)N(Cc1ccco1)Cc1cc2cc(OCC)ccc2[nH]c1=O | 11.2 µM [falling, partial curve, poor fit] | – |
| O=C1CN(S(=O)(=O)c2cccc(Br)c2)CCN1 | 29.1 µM [rising, single point] | – |
| CCOC(=O)c1cc(=O)n2[nH]c(-c3ccc(C)cc3)cc2n1 | 2.06 µM [falling, full curve, poor fit] | – |
| O=C(Cc1ccccc1)NCC(=O)Nc1cccc(Br)c1 | 15.8 µM [falling, partial curve, poor fit] | – |
| CCOC(=O)c1nc(Nc2cc(C)cc(C)c2)c2ccccc2n1 | 0.282 µM [rising, full curve, poor fit] | – |
| CC(=O)c1ccc(NC(=O)C2(S(=O)(=O)c3ccccc3)CC2)cc1 | 5.62 µM [rising, single point] | – |
| O=C(NCc1ccccc1)C(c1ccco1)N(C(=O)c1ccccn1)c1ccc(F)cc1 (configuration not stated) | 20 µM [falling, single point] | – |
| CC(=O)c1cccc(N(C(=O)c2ccco2)C(C(=O)NC2CCCCC2)c2ccc(C)o2)c1 (configuration not stated) | 20 µM [falling, single point] | – |
| O=C(COC(=O)CCCc1nc2ccccc2s1)NC(=O)NCc1ccco1 | 3.16 µM [rising, single point] | – |
| Cc1cc(Cl)ccc1OCCCC(=O)N1CCOCC1 | 8.91 µM [rising, partial curve, poor fit] | – |
| CCc1nc(Nc2ccc(OC)cc2OC)c2oc3ccccc3c2n1 | 17.8 µM [rising, single point] | – |
| CCC1=NN2C(=N)/C(=C\c3ccc(OCCOc4ccc(NC(C)=O)cc4)cc3)C(=O)N=C2S1 | 11.2 µM [rising, partial curve, poor fit] | – |
| COc1ccccc1NC(=O)Nc1ccc2c(c1)CCC2 | 17.8 µM [falling, single point] | – |
| Cc1cc(OC(C)C(=O)NNC(=O)Nc2ccc(F)cc2F)cc(C)c1Cl (configuration not stated) | 35.5 µM [falling, single point] | – |

| SMILES | AC50 [1] | AC50 [2] |
| --- | --- | --- |
| N#CC1=C(N)C(C#N)(C#N)C2(C(=O)Nc3ccccc32)C2CCCC=C12 (configuration not stated) | 11.2 µM [falling, partial curve, poor fit] | – |
| O=C(Nc1ccc2nc3n(c(=O)c2c1)CCCC3)c1cccc(F)c1 | 35.5 µM [falling, single point] | – |
| COc1ccc(C(CNc2ncnc3sccc23)N(C)C)cc1OC (configuration not stated) | 0.2 µM [falling, full curve, poor fit] | – |
| C=CCn1c(=O)[nH]c2cc(C(=O)N3CC=C(c4ccccc4)CC3)ccc2c1=O | 10 µM [falling, partial curve] | – |
| O=C(Cn1c(=O)oc2cc(S(=O)(=O)N3CCCCCC3)ccc21)NC1CCCCC1 | 29.1 µM [rising, single point] | – |
| Cc1ccc(NC(=O)c2cc3ccccc3o2)cc1 | 12.6 µM [falling, single point] | – |
| COc1ccc(-c2noc(C3CCCN(S(=O)(=O)c4cccc(Cl)c4C)C3)n2)cc1OC (configuration not stated) | 35.5 µM [rising, partial curve, poor fit] | – |
| CSc1ccccc1NC(=O)Nc1ccccc1Cl | 7.08 µM [falling, full curve] | – |
| COc1cccc2cc(C(=O)c3ccccc3)oc12 | 11.2 µM [falling, partial curve] | – |
| O=C(CCl)Nc1cc(SCC(O)CO)cc([N+](=O)[O-])c1 (configuration not stated) | 8.91 µM [falling, partial curve] | – |
| Cc1ccc2nc3sc(C(=O)N4CCOCC4)c(N)c3cc2c1 | 1.41 µM [falling, partial curve] | – |
| Cc1cc(S(=O)(=O)Nc2c(NC3CCCCC3)c3ccccc3oc2=O)ccc1F | 14.1 µM [falling, partial curve, poor fit] | – |
| COc1ccc(C(=O)Nc2nc(N3C(=O)c4ccccc4C3=O)n(-c3ccccc3)n2)cc1 | 2.59 µM [falling, partial curve, poor fit] | – |
| Cc1cccc(C)c1OCC(=O)N/N=C/c1cccn1C | 25.9 µM [rising, single point] | 29.1 µM [falling, single point] |
| CCc1c(C)sc(NC(=O)c2cccs2)c1C(N)=O | 0.291 µM [rising, partial curve, poor fit] | – |
| CCc1ccc(/C=N/NC(=S)NCCc2ccccc2)cc1 | 29.1 µM [rising, single point] | – |
| COc1cc(/C=N/NC(=Nc2ccc(C)cc2)c2nc3ccccc3s2)ccc1O | 7.31 µM [falling, partial curve] | 16.4 µM [rising, partial curve, poor fit] |
| Cc1ccc2oc(=S)n(C)c2c1 | 29.1 µM [rising, single point] | – |
| O=C(CN1CCc2ccccc2C1)N1CCN(S(=O)(=O)c2ccccc2)CC1 | 6.51 µM [rising, single point] | – |
| N#C/C(=C\c1cccs1)Sc1nc2ccccc2s1 | 0.58 µM [rising, partial curve] | – |
| CN(C)S(=O)(=O)c1ccc(C(=O)NNC(=O)C2COc3ccccc3O2)cc1 (configuration not stated) | 7.94 µM [rising, partial curve, poor fit] | – |

Single records, from the list above.
N#C/C(=C\c1cccs1)Sc1nc2ccccc2s1 is listed with AC50 [1]: 0.58 µM [rising, partial curve]
Cc1ccc2nc3sc(C(=O)N4CCOCC4)c(N)c3cc2c1 is listed with AC50 [1]: 1.41 µM [falling, partial curve]
O=C(Nc1ccc2nc3n(c(=O)c2c1)CCCC3)c1cccc(F)c1 is listed with AC50 [1]: 35.5 µM [falling, single point]
